Results are given in words; binding and its absence hold for the method and conditions named. In cells and extracts the contact can be indirect. Binding calls can cover weak binding; strength is not graded here. Sequences can lack the tags named with a protein.

Experiment [1] has as its target T1, GFP:SNAP33 (Qbc-SNARE SNAP33 fused to GFP, estradiol-inducible) (Arabidopsis thaliana) (UniProt Q9S7P9).
T1 sequence: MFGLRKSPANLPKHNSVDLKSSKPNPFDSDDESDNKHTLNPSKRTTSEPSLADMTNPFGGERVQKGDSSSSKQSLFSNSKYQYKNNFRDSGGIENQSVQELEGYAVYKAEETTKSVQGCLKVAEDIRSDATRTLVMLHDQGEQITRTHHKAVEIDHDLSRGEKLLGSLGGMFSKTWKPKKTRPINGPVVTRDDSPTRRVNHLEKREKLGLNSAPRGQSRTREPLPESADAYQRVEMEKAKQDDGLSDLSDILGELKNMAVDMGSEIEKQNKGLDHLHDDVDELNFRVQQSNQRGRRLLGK
Kind of experiment: co-IP; protein extracts of Arabidopsis seedlings (wild type, big3, or gnl1 GNL1^BFA-sens.) with estradiol-induced YFP:NPSN11 or GFP:SNAP33, with or without 50 µM BFA (30 min, then BFA + 20 µM estradiol 210 min; traffic blocked at the TGN or at the ER); anti-GFP beads (GFP-trap) 2 hr in the cold; 50 mM Tris pH 7.5, 150 mM NaCl, 1 mM EDTA, 0.5% Triton X-100 (washes 0.2%); immunoblot. In general terms: Immunoblotting shows a protein as a band on a membrane.

The target of experiment [2] is T2, YFP:NPSN11 (Qb-SNARE NPSN11 fused to YFP, estradiol-inducible) (Arabidopsis thaliana) (UniProt Q944A9).
T2 sequence: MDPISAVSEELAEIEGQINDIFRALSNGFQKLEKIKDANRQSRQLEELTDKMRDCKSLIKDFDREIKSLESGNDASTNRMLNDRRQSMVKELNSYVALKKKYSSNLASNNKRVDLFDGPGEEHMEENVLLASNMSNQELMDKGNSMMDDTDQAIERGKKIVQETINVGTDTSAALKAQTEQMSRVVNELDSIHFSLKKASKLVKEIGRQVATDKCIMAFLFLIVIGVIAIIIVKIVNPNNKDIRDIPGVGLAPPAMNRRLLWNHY
The experiment is described as above.

In the case of Qa-SNARE KNOLLE, the binding result in experiment [1] and in experiment [2] was “binds” each time.
